# Values joined by “and” are separate entries in the source; they are usually repeats but may differ in a detail not shown here. Equal entries are not always repeated. About 5,400 (1.8%) of roughly 300,000 compounds were called active. Inconclusive results, whose numbers are uncertain, are shown with a selection of clear calls. Calls come from the whole dose curve; tested in HEK293 cells. Potencies of inconclusive entries are doubtful fits and often do not repeat.
# Assay: qHTS for inhibitors of binding or entry into cells for Marburg Virus
# Settings: Marburg virus pseudotyped entry inhibition, cell reporter; series mostly up to 37.8 µM
# Potency is the fitted concentration of half-maximal effect.
row,Structure (SMILES),Potency
1,COc1ccc(-c2cc(C(=O)Nc3c(C)nn(Cc4ccc(C)cc4)c3C)no2)cc1OC,"inconclusive: 10 µM [inhibitor, partial curve]"
2,CCc1ccc(NC(=S)N2CCCC(C(F)(F)F)C2)cc1 (stereo not drawn),"inconclusive: 35.5 µM [activator, single point]"
3,CN(C)S(=O)(=O)c1ccc2[nH]cc(/C=C/c3nc4ccccc4c(=O)n3-c3ccccc3)c2c1,inactive
4,CCOC(=O)c1c(C2CC2)csc1NC(=O)COC(=O)c1cnc(Cl)c(Cl)c1,"inconclusive: 0.631 µM [activator, partial curve, poor fit]"
5,CSc1nncc(-c2ccccc2)n1,"inconclusive: 0.708 µM [activator, full curve, poor fit]"
6,CCc1nc(-c2cc(S(=O)(=O)N3CCN(c4ccccc4OC)CC3)ccc2OC)no1,inactive
7,COc1ccc(-c2noc(-c3ccoc3C)n2)cc1,"inconclusive: 16.4 µM [inhibitor, single point]"
8,CCOC(=O)/C(=N\Nc1ccccc1[N+](=O)[O-])c1csc(Nc2ccccc2)n1,"inconclusive: 7.08 µM [inhibitor, partial curve, poor fit]"
9,CCCNC(=O)NC(=O)CN1C(=O)NC(C)(c2ccc3ccccc3c2)C1=O (stereo not drawn),"inconclusive: 22.4 µM [inhibitor, single point]"
10,CC(=O)C1=C(O)C(=O)N(c2ccccn2)C1c1ccc(C)cc1 (stereo not drawn),"inconclusive: 25.1 µM [activator, single point]"
11,Cc1cc(OCC(=O)NCC(O)c2ccccc2)c2c(C)c(C)c(=O)oc2c1 (stereo not drawn),inactive
12,Cc1ccc2c(c1)N=C(c1ccccc1)CC(C(Cl)Cl)=N2,"inconclusive: 17.8 µM [inhibitor, single point]"
13,COCc1ccc(C(=O)N(C)C2CCCN(Cc3ccccc3F)C2)o1 (stereo not drawn),inactive
14,Nc1ccc(-n2nnnc2CN2CCOCC2)cc1,"inconclusive: 0.891 µM [inhibitor, full curve, poor fit]"
15,CC(C)OC(=O)c1ccc(COC(=O)c2cccc(-c3nnc(-c4ccccc4)o3)c2)cc1,"inconclusive: 31.6 µM [activator, single point]"
16,CCc1ccc(C(=O)c2cncc(Br)c2)cc1,"inconclusive: 15.8 µM [activator, partial curve, poor fit]"
17,CC1=C(C#N)C(c2cn(-c3ccccc3)nc2-c2cccs2)C(C#N)=C(C)N1,"inconclusive: 0.651 µM [inhibitor, full curve, poor fit]"
18,Cc1c2ccncc2cc2c1[nH]c1ccccc12,"inconclusive: 5.62 µM [inhibitor, partial curve, poor fit]"
19,CCOC(=O)c1sc(NC(=O)c2cccs2)cc1C,"inconclusive: 0.891 µM [activator, full curve, poor fit]"
20,CC(=O)c1ccc2noc(-c3ccccc3)c2c1,inactive
21,Fc1ccc(C2Nc3cccc4cccc(c34)N2)cc1,inactive
22,Cc1cccc(C(=O)NC(=S)Nc2ccccc2C(F)(F)F)c1,"inconclusive: 3.98 µM [inhibitor, full curve, poor fit]"
23,CCOCCCNC(=O)C(c1ccc(C)cc1)N(Cc1cccs1)C(=O)c1ccc(NC(C)=O)cc1 (stereo not drawn),"inconclusive: 28.2 µM [inhibitor, single point]"

row,Structure (SMILES),Potency
1,CN1CCc2c(sc(NC(=O)C3CCCN3S(=O)(=O)c3ccc(Cl)s3)c2C(N)=O)C1 (stereo not drawn),"inconclusive: 11.2 µM [inhibitor, partial curve, poor fit]"
2,O=C(Nc1cccc([N+](=O)[O-])c1)N(c1ccccc1)c1ccccc1,"inconclusive: 7.08 µM [inhibitor, partial curve, poor fit]"
3,CC1(C)CSC(=NCCc2ccccc2)N1,inactive
4,CCOC(=O)C(=CNc1ccc(Oc2cncc(Cl)c2)nc1)C(=O)OCC,"inconclusive: 2.24 µM [inhibitor, partial curve, poor fit]"
5,COc1ccc(CNC(=O)C(=O)NCC2OCCN2C(=O)c2ccc(OC)cc2)cc1 (stereo not drawn),"inconclusive: 0.891 µM [inhibitor, single point]"
6,CCOC(=O)Cc1c(C)c2ccc(N(CC)CC)cc2oc1=O,inactive
7,CCC1(c2ccccc2)NC(=O)N(CC(=O)Nc2ccccc2N2CCCCC2)C1=O (stereo not drawn),"inconclusive: 28.2 µM [inhibitor, partial curve, poor fit]"
8,Cc1cc(/C=N/NC(=O)c2cccc([N+](=O)[O-])c2)c(C)n1-c1ccccc1,"inconclusive: 14.1 µM [inhibitor, single point]"
9,CC1CCN(Cc2ccc(-c3nnn(CC(=O)Nc4ccccc4Cl)n3)cc2)CC1,"inconclusive: 35.5 µM [inhibitor, single point]"
10,CCCc1nc2ccccc2n2c(-c3ccc(C)cc3)c3c(=O)n(C)c(=O)n(C)c3c12,inactive
11,O=C(c1ccco1)N1CCN(C(c2ccc(Cl)cc2)c2nnnn2CC2CCCO2)CC1 (stereo not drawn),inactive
12,CC(C)c1ccc(NC(=O)c2cccc3c2C(=O)N(C2CCCCC2)C3)cc1,inactive
13,CCOc1ccc(-n2c(O)c(/C=N/Nc3nnc(C)c(=O)[nH]3)c3ccccc3c2=O)cc1,inactive
14,O=C1CSC(=S)N1N=Cc1cccc2ccccc12,"inconclusive: 2.82 µM [activator, full curve, poor fit]"
15,O=C(NCCc1ccc(Cl)cc1)c1ccc(OCC2CCCO2)cc1 (stereo not drawn),inactive
16,Cc1cc(C)c(NC(=O)Cn2c(=O)n(Cc3ccco3)c(=O)c3ccc(C(=O)NC4CCCC4)cc32)c(C)c1,inactive
17,COC(=O)CCc1sc(Nc2ccccc2)nc1-c1ccc(OC)cc1,inactive
18,Cc1ccccc1OCC(O)CN1CCC(C)CC1 (stereo not drawn),"inconclusive: 28.2 µM [inhibitor, partial curve, poor fit]"
19,O=C(CNC(=O)c1ccco1)Nc1cc(Cl)ccc1N1CCOCC1,"inconclusive: 17.8 µM [inhibitor, single point]"
20,Cc1ccc(-c2noc(CSc3nnc(Cc4ccccc4)n3-c3cccc(C)c3)n2)cc1,"inconclusive: 18.3 µM [inhibitor, partial curve] and inconclusive: 35.5 µM [inhibitor, single point]"
21,CC(C)NC(=O)NC(=O)CN1C(=O)NC2(CCc3ccccc3C2)C1=O (stereo not drawn),inactive
22,C=CCOc1ccccc1CN1CCCC(CCC(=O)N(C)CCc2ccccn2)C1 (stereo not drawn),"inconclusive: 35.5 µM [inhibitor, single point]"
23,CC(=O)Nc1ccc(/C(C)=N/NC(=O)CN(c2ccccc2Br)S(C)(=O)=O)cc1,"inconclusive: 6.31 µM [activator, single point]"

row,Structure (SMILES),Potency
1,COc1cc(/C=N/Nc2cc(C)nc(N)n2)ccc1O,inactive
2,CSc1ncccc1-c1nc2ccccc2[nH]1,"inconclusive: 6.31 µM [activator, single point]"
3,CCCCNC(=O)Cn1cnc2sc(C(=O)OCC)c(C)c2c1=O,inactive
4,CN(CC(=O)NC1CCCCC1)S(=O)(=O)c1cccc2nsnc12,inactive
5,O=C(Nc1cccc(F)c1)C1CCN(c2nnnn2-c2ccccc2)CC1,inactive
6,Cc1cccc(OCC(=O)N/N=C\c2cn(C)c3ccccc23)c1,"inconclusive: 35.5 µM [inhibitor, partial curve, poor fit]"
7,c1ccc(-c2noc(CN3CCOCC3)n2)cc1,"inconclusive: 3.55 µM [inhibitor, partial curve, poor fit]"
8,Cc1[nH][nH]c(=O)c1C(c1ccc(-c2cccc(C(=O)O)c2)o1)c1c(C)[nH][nH]c1=O,inactive
9,CC(CCc1ccccc1)NC(=O)c1ccc(NC(=O)c2cccc(Br)c2)cc1 (stereo not drawn),"inconclusive: 3.98 µM [inhibitor, partial curve, poor fit]"
10,OC(COc1c(Cl)cc(Cl)cc1Cl)CN1CCCCC1 (stereo not drawn),"inconclusive: 13 µM [inhibitor, partial curve, poor fit]"
11,CCOC(=O)c1c(NC(=O)CSc2nc3ccc(OC)cc3[nH]2)sc2c1CC(C)(C)NC2(C)C,"inconclusive: 8.91 µM [inhibitor, partial curve, poor fit]"
12,COc1ccc(Nc2nc3ccccc3c3nnc(C)n23)cc1Cl,inactive
13,CCN1CCCC1CN(Cc1cc2ccc(C)c(C)c2[nH]c1=O)C(=O)Nc1ccccc1OC (stereo not drawn),active: 17.8 µM
14,O=C(CC1NC2CCCCC2NC1=O)Nc1cccc(C(F)(F)F)c1 (stereo not drawn),"inconclusive: 8.91 µM [activator, partial curve, poor fit]"
15,Cc1cccc(C)c1NC(=O)CNC(=O)CCC(=O)c1cccs1,inactive
16,Cc1c(C(=O)OC(C)C)[nH]c2c1C(=O)CC(C)(C)C2,inactive
17,CCOC(=O)CCSc1nc(C)c2cc(OC)ccc2n1,"inconclusive: 11.6 µM [activator, partial curve, poor fit]"
18,C=CC[C@@H]1C=CC(O/N=C/C[C@@H]2C=C[C@H](OC(C)=O)[C@@H](COC(C)=O)O2)[C@@H](CO)O1 (stereo partly drawn),inactive
19,Cc1ccc(NC(=O)Nc2cnccn2)cc1Cl,"inconclusive: 1 µM [inhibitor, single point]"
20,COCCNC(=O)c1cc2nc3c(c(C(F)(F)F)n2n1)CCc1ccccc1-3,inactive
21,COc1ccc(COC(=O)N/N=C2/C[C@@H](O)[C@@H](O)[C@@H]3[C@@H]4C(=O)N(C[C@@H]5CCCO5)C(=O)[C@H]4CC[C@@H]23)cc1,"inconclusive: 1.19 µM [inhibitor, partial curve, poor fit]"
22,CCCc1nc2oc3c(NCCCN(C)C)ncnc3c2c2c1CCCC2,"inconclusive: 1.12 µM [inhibitor, full curve, poor fit]"

# Look-ups from the results shown:
# Under Potency, `CC(=O)c1ccc2noc(-c3ccccc3)c2c1` has the entry inactive
# Under Potency, `CCOC(=O)c1sc(NC(=O)c2cccs2)cc1C` has the entry inconclusive: 0.891 µM [activator, full curve, poor fit]

# Copied from above (3 entries):
row,Structure (SMILES),Potency
20,COCCNC(=O)c1cc2nc3c(c(C(F)(F)F)n2n1)CCc1ccccc1-3,inactive
21,COc1ccc(COC(=O)N/N=C2/C[C@@H](O)[C@@H](O)[C@@H]3[C@@H]4C(=O)N(C[C@@H]5CCCO5)C(=O)[C@H]4CC[C@@H]23)cc1,"inconclusive: 1.19 µM [inhibitor, partial curve, poor fit]"
22,CCCc1nc2oc3c(NCCCN(C)C)ncnc3c2c2c1CCCC2,"inconclusive: 1.12 µM [inhibitor, full curve, poor fit]"
